Source: PMC3424243

By UniProt entry, the sequences of proteins in these tests, tags left out. Where a name states a change or a piece, a line headed by the entry shows the natural chain unless it says otherwise.
UniProt Q17604: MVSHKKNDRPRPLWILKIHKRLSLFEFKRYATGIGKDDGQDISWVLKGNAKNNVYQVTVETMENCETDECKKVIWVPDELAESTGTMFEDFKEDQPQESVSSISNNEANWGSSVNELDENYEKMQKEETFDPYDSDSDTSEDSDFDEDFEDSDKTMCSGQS
UniProt Q27497: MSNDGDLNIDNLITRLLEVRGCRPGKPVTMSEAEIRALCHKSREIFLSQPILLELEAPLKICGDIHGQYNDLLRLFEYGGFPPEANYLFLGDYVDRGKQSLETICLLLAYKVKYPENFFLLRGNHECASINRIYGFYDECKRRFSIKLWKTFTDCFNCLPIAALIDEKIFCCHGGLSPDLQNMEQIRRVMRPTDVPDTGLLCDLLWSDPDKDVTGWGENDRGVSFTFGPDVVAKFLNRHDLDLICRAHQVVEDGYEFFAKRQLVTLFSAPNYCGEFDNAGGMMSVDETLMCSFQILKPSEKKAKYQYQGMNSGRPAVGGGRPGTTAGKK
UniProt P48727: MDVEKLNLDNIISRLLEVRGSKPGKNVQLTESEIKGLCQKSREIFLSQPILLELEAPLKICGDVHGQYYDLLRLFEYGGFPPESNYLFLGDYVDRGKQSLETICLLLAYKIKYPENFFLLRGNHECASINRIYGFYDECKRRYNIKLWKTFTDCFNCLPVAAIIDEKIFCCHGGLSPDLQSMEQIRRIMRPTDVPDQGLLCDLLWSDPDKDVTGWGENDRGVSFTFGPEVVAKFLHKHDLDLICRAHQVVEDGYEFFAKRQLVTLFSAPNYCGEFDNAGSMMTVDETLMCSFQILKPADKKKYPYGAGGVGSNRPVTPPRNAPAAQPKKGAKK

Tests used:
Test in all cases: far-Western, overlay or dot blot; 0.8 µg of each protein resolved on 12.5% SDS-PAGE and transferred to nitrocellulose; blocked in PBSTBM (PBS, 1% Tween 20, 5% dry milk, 1% BSA); incubated overnight at 4°C with 2 µg/ml of the binding protein in PBSTBM; probed with antibodies; both orientations used; both purified
[1] = molecular target: LAB-1 lacking the putative PP1 binding motif (ΔPP1), purified recombinant (C. elegans) (UniProt Q17604)
[2] = molecular target: GSP-1 (PP1 homolog), purified recombinant (C. elegans) (UniProt Q27497)
[3] = molecular target: GSP-2 (PP1 homolog), purified recombinant (C. elegans) (UniProt P48727)

Substance	binding [1]	binding [2]	binding [3]
GSP-1 (PP1 homolog), purified recombinant (from UniProt Q27497 1-329) (enzyme)	binds	–	–
LAB-1 lacking the putative PP1 binding motif (ΔPP1), purified recombinant (from UniProt Q17604)	–	binds	binds

These are yes or no findings as the source states them, for the method shown. A result given as binding can be weak or reduced; the word gives no strength.
